From patent publication US10344025B2, “GLS1 inhibitors for treating disease” (Board of Regents, The University of Texas System, priority 2014, dated 2019)

Amino acid sequences for entries named in this document (tags omitted). Chains listed by the source or under a name are the forms on record and can include a tag or linker. Residues count along the entry.
UniProt O94925, 55-550 with tags or gaps limits assumed: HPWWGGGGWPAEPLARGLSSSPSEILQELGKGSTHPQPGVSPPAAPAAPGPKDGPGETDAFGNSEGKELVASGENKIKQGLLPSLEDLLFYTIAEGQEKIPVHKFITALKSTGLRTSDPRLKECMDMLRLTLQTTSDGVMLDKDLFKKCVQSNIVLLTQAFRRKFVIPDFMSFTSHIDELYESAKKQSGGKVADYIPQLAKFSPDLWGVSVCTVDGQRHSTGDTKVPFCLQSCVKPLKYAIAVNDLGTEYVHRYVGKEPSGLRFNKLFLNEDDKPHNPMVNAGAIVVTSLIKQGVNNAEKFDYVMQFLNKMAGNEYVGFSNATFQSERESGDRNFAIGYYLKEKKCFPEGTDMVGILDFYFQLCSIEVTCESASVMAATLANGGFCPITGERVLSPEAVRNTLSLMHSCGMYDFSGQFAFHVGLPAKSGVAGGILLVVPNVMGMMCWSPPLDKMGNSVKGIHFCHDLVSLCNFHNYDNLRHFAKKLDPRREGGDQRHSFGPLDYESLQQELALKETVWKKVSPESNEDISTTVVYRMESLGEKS

Key:
[1] = target: purified recombinant human GAC (GLS1) (Homo sapiens (Human), UniProt O94925); test: GLS1 Enzymatic Activity Assay (dual-coupled enzymatic assay, resorufin/Amplex UltraRed readout); format: biochemical; settings: read-out: GLS1 IC50;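 further: glutamate from GAC coupled via glutamate oxidase and peroxidase to resorufin, read as fluorescence (ex 530, em 590 nm) kinetically or at 20 min, four-parameter logistic IC50 fit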
A549 cells = test: Proliferation Assay (A549 viability, Cell Titer Fluor, 72 hours); format: cell-based; settings: read-out: A549 EC50

- IC50 [1]: < 100 nM
- EC50 (A549 cells): 100 to 500 nM
Structure (SMILES): O=C(NCc1cc(C(F)(F)F)ccn1)c1cn(CC(F)CCc2nnc(NC(=O)C3CC3)s2)nn1 (centres unmarked)

The structures given here were assigned with low confidence; some may be wrong.
